Reference: the supplement of paper PMC10849652
The list shows a part of the results.

Protein sequences, listed by entry. Tags and fused reporters are not part of them. Lines headed by an entry give the natural chain unless they say otherwise; changes in a name come on top.
UniProt Q9NUL3: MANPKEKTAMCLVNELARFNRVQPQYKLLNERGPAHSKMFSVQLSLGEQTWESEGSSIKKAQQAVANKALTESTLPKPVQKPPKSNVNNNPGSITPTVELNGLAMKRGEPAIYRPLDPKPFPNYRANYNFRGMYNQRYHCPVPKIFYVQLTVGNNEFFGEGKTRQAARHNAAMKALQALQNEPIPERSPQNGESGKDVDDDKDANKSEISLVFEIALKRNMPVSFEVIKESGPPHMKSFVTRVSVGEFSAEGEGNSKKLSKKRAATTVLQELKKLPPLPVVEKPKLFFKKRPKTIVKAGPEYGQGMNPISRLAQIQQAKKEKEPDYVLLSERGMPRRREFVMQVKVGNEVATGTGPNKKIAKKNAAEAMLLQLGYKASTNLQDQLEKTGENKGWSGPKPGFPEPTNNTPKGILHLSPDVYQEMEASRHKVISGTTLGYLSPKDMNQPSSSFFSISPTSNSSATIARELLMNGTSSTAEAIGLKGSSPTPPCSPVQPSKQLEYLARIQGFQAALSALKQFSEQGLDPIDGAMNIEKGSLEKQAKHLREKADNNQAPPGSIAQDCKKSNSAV
UniProt P61011: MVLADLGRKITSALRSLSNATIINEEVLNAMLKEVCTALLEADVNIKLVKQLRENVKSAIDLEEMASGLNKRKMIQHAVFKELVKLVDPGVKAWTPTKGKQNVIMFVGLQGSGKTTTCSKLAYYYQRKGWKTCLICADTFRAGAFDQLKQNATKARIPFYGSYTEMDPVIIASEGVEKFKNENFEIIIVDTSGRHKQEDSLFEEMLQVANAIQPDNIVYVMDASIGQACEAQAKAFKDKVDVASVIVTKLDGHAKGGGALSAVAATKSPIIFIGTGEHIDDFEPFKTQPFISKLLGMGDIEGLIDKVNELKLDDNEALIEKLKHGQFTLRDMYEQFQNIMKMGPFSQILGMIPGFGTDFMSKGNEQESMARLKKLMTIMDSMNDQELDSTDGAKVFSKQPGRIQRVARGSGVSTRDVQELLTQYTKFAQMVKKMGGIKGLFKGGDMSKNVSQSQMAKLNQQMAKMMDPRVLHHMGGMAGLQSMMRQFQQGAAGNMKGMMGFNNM
UniProt Q9NQZ5: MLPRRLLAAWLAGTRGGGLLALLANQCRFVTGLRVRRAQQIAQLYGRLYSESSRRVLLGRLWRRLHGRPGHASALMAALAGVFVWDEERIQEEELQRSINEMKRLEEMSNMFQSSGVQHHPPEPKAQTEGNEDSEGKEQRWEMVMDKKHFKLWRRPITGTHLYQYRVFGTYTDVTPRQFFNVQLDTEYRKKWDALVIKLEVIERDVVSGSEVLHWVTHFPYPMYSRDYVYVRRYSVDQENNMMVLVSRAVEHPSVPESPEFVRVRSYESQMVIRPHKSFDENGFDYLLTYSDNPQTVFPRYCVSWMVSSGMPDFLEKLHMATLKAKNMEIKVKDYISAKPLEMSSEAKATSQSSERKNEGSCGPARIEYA
UniProt P40763, whole entry, looked up: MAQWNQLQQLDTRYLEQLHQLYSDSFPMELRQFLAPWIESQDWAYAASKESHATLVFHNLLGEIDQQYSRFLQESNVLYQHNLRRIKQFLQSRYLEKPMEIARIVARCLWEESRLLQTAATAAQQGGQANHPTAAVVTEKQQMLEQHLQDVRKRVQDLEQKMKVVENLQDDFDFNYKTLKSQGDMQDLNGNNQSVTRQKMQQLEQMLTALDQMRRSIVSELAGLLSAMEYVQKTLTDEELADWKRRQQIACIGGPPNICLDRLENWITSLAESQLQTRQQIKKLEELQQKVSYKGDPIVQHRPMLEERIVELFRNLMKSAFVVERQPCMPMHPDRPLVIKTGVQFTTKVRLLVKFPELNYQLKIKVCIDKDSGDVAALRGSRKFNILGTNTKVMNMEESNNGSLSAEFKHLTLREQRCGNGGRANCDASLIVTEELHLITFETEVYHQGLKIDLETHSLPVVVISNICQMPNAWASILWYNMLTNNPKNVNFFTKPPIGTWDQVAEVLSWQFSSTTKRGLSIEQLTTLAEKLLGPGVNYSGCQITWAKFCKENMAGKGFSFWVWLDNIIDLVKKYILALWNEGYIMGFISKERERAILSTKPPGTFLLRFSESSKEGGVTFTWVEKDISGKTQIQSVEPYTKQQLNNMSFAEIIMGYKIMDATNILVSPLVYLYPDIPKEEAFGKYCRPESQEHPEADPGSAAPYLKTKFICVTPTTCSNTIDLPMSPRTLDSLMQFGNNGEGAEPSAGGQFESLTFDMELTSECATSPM
UniProt O15269: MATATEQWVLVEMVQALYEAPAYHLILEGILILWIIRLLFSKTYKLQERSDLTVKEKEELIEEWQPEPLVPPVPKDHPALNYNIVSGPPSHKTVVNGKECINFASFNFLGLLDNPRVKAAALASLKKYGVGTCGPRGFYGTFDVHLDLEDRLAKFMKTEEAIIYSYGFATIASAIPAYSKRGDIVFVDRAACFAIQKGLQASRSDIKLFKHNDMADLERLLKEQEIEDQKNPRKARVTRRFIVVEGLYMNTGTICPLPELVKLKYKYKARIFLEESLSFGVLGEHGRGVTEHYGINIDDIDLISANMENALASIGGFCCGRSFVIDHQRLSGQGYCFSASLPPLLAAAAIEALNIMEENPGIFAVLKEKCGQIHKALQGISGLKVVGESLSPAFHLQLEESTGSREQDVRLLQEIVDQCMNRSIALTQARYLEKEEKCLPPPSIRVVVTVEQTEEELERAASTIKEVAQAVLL
UniProt Q04837: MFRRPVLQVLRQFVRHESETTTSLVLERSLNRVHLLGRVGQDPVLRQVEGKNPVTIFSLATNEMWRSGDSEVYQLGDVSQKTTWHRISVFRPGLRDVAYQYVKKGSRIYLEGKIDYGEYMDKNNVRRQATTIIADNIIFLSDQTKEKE
UniProt P52630: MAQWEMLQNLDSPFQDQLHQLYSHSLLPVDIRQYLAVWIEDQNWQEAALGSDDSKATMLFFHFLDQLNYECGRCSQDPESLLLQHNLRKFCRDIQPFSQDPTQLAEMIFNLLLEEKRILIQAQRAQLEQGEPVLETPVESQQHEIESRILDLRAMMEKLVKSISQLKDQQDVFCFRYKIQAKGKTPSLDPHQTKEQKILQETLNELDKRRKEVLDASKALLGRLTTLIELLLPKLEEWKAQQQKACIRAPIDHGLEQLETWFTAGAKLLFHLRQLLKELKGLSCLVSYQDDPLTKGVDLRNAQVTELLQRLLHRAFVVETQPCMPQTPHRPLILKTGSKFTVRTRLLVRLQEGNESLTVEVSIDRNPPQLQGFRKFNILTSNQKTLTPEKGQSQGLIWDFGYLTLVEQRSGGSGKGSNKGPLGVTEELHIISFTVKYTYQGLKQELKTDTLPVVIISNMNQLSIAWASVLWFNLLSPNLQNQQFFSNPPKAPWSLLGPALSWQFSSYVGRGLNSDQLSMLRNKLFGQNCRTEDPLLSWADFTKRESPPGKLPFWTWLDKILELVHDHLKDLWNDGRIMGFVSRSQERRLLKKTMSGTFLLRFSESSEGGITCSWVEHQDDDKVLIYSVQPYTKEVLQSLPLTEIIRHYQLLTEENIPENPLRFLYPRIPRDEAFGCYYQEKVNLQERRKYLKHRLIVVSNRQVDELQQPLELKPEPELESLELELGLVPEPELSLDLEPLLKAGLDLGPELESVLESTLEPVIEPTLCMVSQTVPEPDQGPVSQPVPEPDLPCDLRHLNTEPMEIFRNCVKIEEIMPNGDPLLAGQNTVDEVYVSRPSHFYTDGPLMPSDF
UniProt O76094: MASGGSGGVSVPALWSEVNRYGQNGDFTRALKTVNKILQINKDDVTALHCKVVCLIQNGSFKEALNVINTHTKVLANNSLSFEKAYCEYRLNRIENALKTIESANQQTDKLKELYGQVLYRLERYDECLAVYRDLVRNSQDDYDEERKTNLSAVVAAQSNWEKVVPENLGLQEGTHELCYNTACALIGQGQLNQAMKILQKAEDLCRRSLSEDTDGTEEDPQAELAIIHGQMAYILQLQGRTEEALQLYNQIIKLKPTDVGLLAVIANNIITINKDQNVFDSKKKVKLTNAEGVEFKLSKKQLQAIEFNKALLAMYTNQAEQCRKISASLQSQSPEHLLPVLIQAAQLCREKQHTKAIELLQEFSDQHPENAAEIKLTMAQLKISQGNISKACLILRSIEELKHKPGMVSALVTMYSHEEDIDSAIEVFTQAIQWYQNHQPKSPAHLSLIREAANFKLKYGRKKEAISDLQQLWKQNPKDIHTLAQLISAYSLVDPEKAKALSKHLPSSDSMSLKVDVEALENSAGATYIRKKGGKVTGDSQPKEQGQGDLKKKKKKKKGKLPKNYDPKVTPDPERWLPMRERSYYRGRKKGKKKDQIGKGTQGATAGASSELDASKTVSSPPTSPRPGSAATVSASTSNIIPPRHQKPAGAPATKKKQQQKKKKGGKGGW
UniProt Q01130: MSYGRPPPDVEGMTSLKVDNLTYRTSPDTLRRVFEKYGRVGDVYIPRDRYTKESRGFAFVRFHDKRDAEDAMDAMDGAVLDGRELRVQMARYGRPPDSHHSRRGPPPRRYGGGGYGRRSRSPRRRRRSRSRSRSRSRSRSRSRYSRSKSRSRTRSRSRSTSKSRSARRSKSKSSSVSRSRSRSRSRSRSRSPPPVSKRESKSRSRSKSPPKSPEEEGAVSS
UniProt P43307: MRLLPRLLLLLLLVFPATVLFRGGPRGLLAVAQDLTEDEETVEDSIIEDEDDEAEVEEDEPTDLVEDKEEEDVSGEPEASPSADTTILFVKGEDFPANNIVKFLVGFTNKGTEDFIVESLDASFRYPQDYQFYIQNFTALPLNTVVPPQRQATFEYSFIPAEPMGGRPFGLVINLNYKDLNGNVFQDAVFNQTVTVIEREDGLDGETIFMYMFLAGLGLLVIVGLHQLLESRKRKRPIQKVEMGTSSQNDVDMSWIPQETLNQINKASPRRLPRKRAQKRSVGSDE
UniProt P16150: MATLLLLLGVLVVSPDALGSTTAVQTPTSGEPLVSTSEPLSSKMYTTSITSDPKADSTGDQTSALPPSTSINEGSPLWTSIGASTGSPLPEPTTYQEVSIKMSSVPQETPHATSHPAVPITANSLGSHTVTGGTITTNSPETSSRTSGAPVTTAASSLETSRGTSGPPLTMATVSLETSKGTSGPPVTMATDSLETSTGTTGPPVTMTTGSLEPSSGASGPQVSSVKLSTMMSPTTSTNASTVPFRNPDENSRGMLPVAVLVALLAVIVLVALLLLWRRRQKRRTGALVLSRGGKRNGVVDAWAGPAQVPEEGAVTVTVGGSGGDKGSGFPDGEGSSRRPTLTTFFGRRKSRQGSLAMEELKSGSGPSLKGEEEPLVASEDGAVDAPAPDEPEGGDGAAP
UniProt P51571: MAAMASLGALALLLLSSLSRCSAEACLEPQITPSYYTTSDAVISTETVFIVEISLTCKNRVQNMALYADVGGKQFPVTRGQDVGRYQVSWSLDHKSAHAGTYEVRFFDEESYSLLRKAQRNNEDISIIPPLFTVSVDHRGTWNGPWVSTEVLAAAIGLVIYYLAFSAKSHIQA
UniProt O95772: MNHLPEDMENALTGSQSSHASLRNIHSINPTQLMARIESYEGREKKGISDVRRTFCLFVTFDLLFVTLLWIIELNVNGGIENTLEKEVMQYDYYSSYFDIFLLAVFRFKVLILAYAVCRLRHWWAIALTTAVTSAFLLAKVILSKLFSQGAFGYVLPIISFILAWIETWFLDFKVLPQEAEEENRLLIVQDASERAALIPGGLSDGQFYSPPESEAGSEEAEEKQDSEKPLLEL
UniProt Q9BRL6: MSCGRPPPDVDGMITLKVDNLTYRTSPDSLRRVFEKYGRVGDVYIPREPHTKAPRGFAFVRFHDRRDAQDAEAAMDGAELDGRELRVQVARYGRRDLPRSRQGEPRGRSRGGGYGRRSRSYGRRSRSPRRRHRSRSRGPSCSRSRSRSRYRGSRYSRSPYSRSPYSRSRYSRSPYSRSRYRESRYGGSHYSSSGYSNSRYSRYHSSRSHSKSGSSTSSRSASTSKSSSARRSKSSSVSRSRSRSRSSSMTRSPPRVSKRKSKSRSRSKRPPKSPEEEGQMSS
UniProt Q5W111: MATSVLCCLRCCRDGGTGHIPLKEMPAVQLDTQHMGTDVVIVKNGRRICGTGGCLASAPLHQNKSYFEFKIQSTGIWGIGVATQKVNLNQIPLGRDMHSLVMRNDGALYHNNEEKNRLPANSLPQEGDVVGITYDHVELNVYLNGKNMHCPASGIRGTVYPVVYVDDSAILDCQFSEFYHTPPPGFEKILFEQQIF

Experiments:
Assay in all cases: log2 fold change, soluble protein after heating vs DMSO (PISA); higher = thermal stabilisation; K562 lysate, 10 uM; active = over 0.2 and 3.5 SD of the protein, either way, in both replicates (recomputed)
erlotinib = compound: C#Cc1cccc(Nc2ncnc3cc(OCCOC)c(OCCOC)cc23)c1 [erlotinib]
Summary of the method: (§1)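 The values are log-two fold changes in thermal stability compared with solvent controls and come from duplicates. They were obtained by TMTpro 16plex LC-MS/MS, with channel sums equalised, on the supernatant after 21,000xg for 90 min. That supernatant came from crude K562 extract at 1 mg/mL protein treated with 10 μM compound for 30 min, heated for 3 min across 48°C-58°C, pooled and brought to 0.5% NP-40 at 4°C.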

[1] = compound: C/C(=N\NC(=O)C1=CC(=CC=C1)S(=O)(=O)N2CCOCC2)/C3=C(C=CC(=C3)Cl)O
Summary of the method: as §1

[2] = compound: C1=CC(=CC=C1C2=NC3=C(N2)C=C(C=C3)C(=O)N)OC4=CC=C(C=C4)Cl
Summary of the method: as §1

[3] = compound: C1=CC2=C(C=CC(=C2)/C=C\3/C(=O)NC(=NCC4=CC=CS4)S3)N=C1
Summary of the method: as §1

[4] = compound: C1=CC2=NC=CN=C2C=C1/C=C/3\C(=O)NC(=O)S3
Summary of the method: as §1

[5] = compound: C1=CC=C(C=C1)C2=NC(=C(N2)C3=CC=NC=C3)C4=CC(=C(C=C4)Cl)O
Summary of the method: as §1

[6] = compound: C1=CC=C2C(=C1)C3=NNC4=CC=CC(=C43)C2=O
Summary of the method: as §1

[7] = compound: C1CCN(C1)C(=O)NC2=CC=CC(=C2)NC3=NC=C(C(=N3)NCCC4=CN=CN4)Br
Summary of the method: as §1

[8] = compound: C1CN(CCC1(CC2=CC=C(C=C2)Cl)N)C3=NC=NC4=C3C=CN4
Summary of the method: as §1

IRAK-1-4 Inhibitor I = compound: C1COCCN1CCN2C3=CC=CC=C3N=C2NC(=O)C4=CC(=CC=C4)[N+](=O)[O-] [IRAK-1-4 Inhibitor I]
Summary of the method: as §1

ibrutinib = compound: C=CC(=O)N1CCC[C@@H](n2nc(-c3ccc(Oc4ccccc4)cc3)c3c(N)ncnc32)C1 [ibrutinib]
Summary of the method: as §1

[9] = compound: CC(=O)c1cnc2ccc(-c3cc(Cl)c(O)c(Cl)c3)nc2c1N[C@H]1CC[C@H](CN(C)C)CC1
Summary of the method: as §1

ralimetinib = compound: CC(C)(C)Cn1c(N)nc2ccc(-c3[nH]c(C(C)(C)C)nc3-c3ccc(F)cc3)nc21 [ralimetinib]
Summary of the method: as §1

[10] = compound: CC(C)(O)CC(=O)NCCn1ccc2ncnc(Nc3ccc(Oc4cccc(C(F)(F)F)c4)c(Cl)c3)c21
Summary of the method: as §1

[11] = compound: CC(C)C1=C2N=C(C=C(N2N=C1)NCC3=CC=CC=C3)NCCCCCCN
Summary of the method: as §1

[12] = compound: CC1=C(C(CC(=O)N1)C2=CC=C(C=C2)C(F)(F)F)C(=O)NC3=C(C=C4C(=C3)C=NN4)F
Summary of the method: as §1

[13] = compound: CC1=C(C2=C(C=C1)C(=O)C3=CC=CC=C3N2CCCN)C
Summary of the method: as §1

[14] = compound: CC1=C(C=C(C=C1)NC(=O)C2=CC(=CC=C2)C(C)(C)C#N)NC3=CC4=C(C=C3)N=CN(C4=O)C
Summary of the method: as §1

[15] = compound: CC1=C(C=C(C=C1)NC(=O)C2=CC(=CC=C2)N(C)C)NC(=O)C3=CC=C(C=C3)O
Summary of the method: as §1

[16] = compound: CC1=CC=C(C=C1)SC2=C3C=C(SC3=CN=C2)C(=O)N
Summary of the method: as §1

Measured: log2 fold change

STAU2 (UniProt Q9NUL3)
inactive: erlotinib 0.072 | [1] -0.164 | [2] 0.045 | [3] -0.001 | [4] -0.052 | [5] -0.006 | [6] -0.015 | [7] 0.02 | [8] 0.051 | IRAK-1-4 Inhibitor I -0.018 | ibrutinib 0.036 | [9] -0.019 | ralimetinib 0.056 | [10] 0.009 | [11] 0.044 | [12] 0 | [13] -0.024 | [14] 0.035 | [15] 0.045 | [16] -0.018

SRP54 (UniProt P61011)
inactive: erlotinib -0.026 | [1] 0.017 | [2] 0.035 | [3] 0.023 | [4] -0.043 | [5] 0.005 | [6] -0.039 | [7] -0.047 | [8] -0.003 | IRAK-1-4 Inhibitor I -0.014 | ibrutinib -0.039 | [9] -0.023 | ralimetinib 0.031 | [10] 0.015 | [11] 0.036 | [12] 0.034 | [13] -0.069 | [14] -0.021 | [15] 0.007 | [16] -0.009

STARD7 (UniProt Q9NQZ5)
inactive: erlotinib -0.006 | [1] 0.084 | [2] 0.028 | [3] -0.038 | [4] -0.042 | [5] 0.012 | [6] -0.024 | [7] -0.029 | [8] 0.011 | IRAK-1-4 Inhibitor I -0.028 | ibrutinib 0.027 | [9] -0.043 | ralimetinib 0.02 | [10] -0.021 | [11] -0.004 | [12] -0.024 | [13] -0.052 | [14] 0.005 | [15] 0.016 | [16] -0.042

STAT3 isoform 2 (UniProt P40763)
inactive: erlotinib 0.002 | [1] 0.002 | [2] -0.003 | [3] -0.005 | [4] 0.009 | [5] -0.013 | [6] -0.012 | [7] -0.012 | [8] 0.034 | IRAK-1-4 Inhibitor I -0.016 | ibrutinib -0.005 | [9] 0.006 | ralimetinib 0.007 | [10] -0.016 | [11] 0.007 | [12] -0.01 | [13] 0.022 | [14] 0.016 | [15] 0.015 | [16] -0.011

SPTLC1 (UniProt O15269)
inactive: erlotinib 0.009 | [1] 0.049 | [2] -0.024 | [3] -0.015 | [4] -0.011 | [5] -0.027 | [6] -0.014 | [7] -0.007 | [8] 0.034 | IRAK-1-4 Inhibitor I 0.022 | ibrutinib -0.021 | [9] 0.005 | ralimetinib 0.009 | [10] -0.007 | [11] -0.05 | [12] -0.005 | [13] -0.004 | [14] 0.034 | [15] 0.022 | [16] -0.002

SPART (UniProt Q8N0X7)
inactive: erlotinib -0.018 | [1] -0.06 | [2] 0.11 | [3] 0.037 | [4] -0.062 | [5] -0.006 | [6] 0.053 | [7] -0.026 | [8] -0.055 | IRAK-1-4 Inhibitor I 0 | ibrutinib -0.039 | [9] -0.054 | ralimetinib 0.017 | [10] -0.015 | [11] 0.01 | [12] 0.083 | [13] 0.027 | [14] -0.008 | [15] 0.017 | [16] -0.014

SSBP1 (UniProt Q04837)
inactive: erlotinib 0.02 | [1] -0.05 | [2] 0.031 | [3] 0.022 | [4] 0.007 | [5] -0.004 | [6] 0.025 | [7] 0.031 | [8] 0.018 | IRAK-1-4 Inhibitor I -0.006 | ibrutinib 0.004 | [9] -0.017 | ralimetinib -0.004 | [10] -0.028 | [11] -0.008 | [12] -0.01 | [13] 0.025 | [14] 0.014 | [15] 0.015 | [16] -0.032

STAT2 (UniProt P52630)
inactive: erlotinib -0.009 | [1] 0.033 | [2] -0.102 | [3] -0.01 | [4] 0.034 | [5] 0.003 | [6] -0.032 | [7] 0.002 | [8] 0.018 | IRAK-1-4 Inhibitor I -0.018 | ibrutinib 0.007 | [9] 0.007 | ralimetinib 0.04 | [10] -0.026 | [11] -0.003 | [12] 0.009 | [13] -0.002 | [14] -0.059 | [15] 0.003 | [16] 0.004

Quoted from the entries so far (two entries):
SPTLC1 (UniProt O15269)
inactive: erlotinib 0.009 | [1] 0.049 | [2] -0.024 | [3] -0.015 | [4] -0.011 | [5] -0.027 | [6] -0.014 | [7] -0.007 | [8] 0.034 | IRAK-1-4 Inhibitor I 0.022 | ibrutinib -0.021 | [9] 0.005 | ralimetinib 0.009 | [10] -0.007 | [11] -0.05 | [12] -0.005 | [13] -0.004 | [14] 0.034 | [15] 0.022 | [16] -0.002

SPART (UniProt Q8N0X7)
inactive: erlotinib -0.018 | [1] -0.06 | [2] 0.11 | [3] 0.037 | [4] -0.062 | [5] -0.006 | [6] 0.053 | [7] -0.026 | [8] -0.055 | IRAK-1-4 Inhibitor I 0 | ibrutinib -0.039 | [9] -0.054 | ralimetinib 0.017 | [10] -0.015 | [11] 0.01 | [12] 0.083 | [13] 0.027 | [14] -0.008 | [15] 0.017 | [16] -0.014

Following part.

SRP72 (UniProt O76094)
inactive: erlotinib -0.035 | [1] -0.004 | [2] -0.002 | [3] 0.023 | [4] -0.008 | [5] -0.03 | [6] -0.033 | [7] -0.03 | [8] -0.001 | IRAK-1-4 Inhibitor I -0.05 | ibrutinib -0.027 | [9] -0.009 | ralimetinib 0.021 | [10] 0.02 | [11] 0.005 | [12] 0.003 | [13] -0.055 | [14] -0.011 | [15] -0.001 | [16] 0.017

SRSF2 (UniProt Q01130)
inactive: erlotinib 0.005 | [1] 0.041 | [2] 0.026 | [3] -0.038 | [4] -0.018 | [5] -0.017 | [6] -0.031 | [7] 0.023 | [8] -0.037 | IRAK-1-4 Inhibitor I 0.04 | ibrutinib 0.021 | [9] -0.009 | ralimetinib 0.034 | [10] -0.065 | [11] -0.013 | [12] -0.021 | [13] -0.015 | [14] 0.016 | [15] 0.028 | [16] -0.018

SSR1 (UniProt P43307)
inactive: erlotinib -0.038 | [1] -0.046 | [2] -0.023 | [3] 0.038 | [4] -0.007 | [5] -0.019 | [6] 0.021 | [7] 0.006 | [8] 0.017 | IRAK-1-4 Inhibitor I -0.014 | ibrutinib 0.019 | [9] 0.04 | ralimetinib -0.019 | [10] -0.038 | [11] -0.072 | [12] 0.03 | [13] 0.021 | [14] 0.006 | [15] 0.005 | [16] 0.041

SPN (UniProt P16150)
inactive: erlotinib -0.019 | [1] -0.119 | [2] 0.023 | [3] 0.001 | [4] -0.018 | [5] 0.01 | [6] 0.001 | [7] 0.021 | [8] 0.022 | IRAK-1-4 Inhibitor I 0.037 | ibrutinib 0.051 | [9] -0.001 | ralimetinib -0.037 | [10] -0.001 | [11] -0.011 | [12] -0.016 | [13] -0.01 | [14] -0.011 | [15] 0.036 | [16] -0.044

SSR4 (UniProt P51571)
inactive: erlotinib -0.008 | [1] -0.056 | [2] 0.014 | [3] -0.004 | [4] -0.017 | [5] -0.034 | [6] 0.047 | [7] -0.028 | [8] -0.004 | IRAK-1-4 Inhibitor I 0.01 | ibrutinib 0.015 | [9] 0.009 | ralimetinib 0.053 | [10] -0.005 | [11] -0.006 | [12] 0.017 | [13] -0.009 | [14] -0.036 | [15] -0.02 | [16] -0.006

STARD3NL (UniProt O95772)
inactive: erlotinib -0.01 | [1] 0.055 | [2] 0.035 | [3] 0.1 | [4] -0.016 | [5] 0.01 | [6] 0.002 | [7] 0.015 | [8] 0.061 | IRAK-1-4 Inhibitor I 0.043 | ibrutinib -0.002 | [9] 0.004 | ralimetinib 0.02 | [10] -0.034 | [11] -0.031 | [12] -0.032 | [13] 0.024 | [14] 0.028 | [15] 0.061 | [16] -0.058

SRSF8 (UniProt Q9BRL6)
inactive: erlotinib -0.021 | [1] 0.012 | [2] 0.005 | [3] -0.01 | [4] -0.017 | [5] -0.001 | [6] -0.043 | [7] 0.076 | [8] -0.007 | IRAK-1-4 Inhibitor I -0.026 | ibrutinib -0.035 | [9] 0.013 | ralimetinib 0.033 | [10] -0.016 | [11] -0.014 | [12] -0.033 | [13] -0.029 | [14] -0.011 | [15] 0.022 | [16] 0

SPRYD7 (UniProt Q5W111)
inactive: erlotinib 0.034 | [1] 0.063 | [2] -0.008 | [3] 0.007 | [4] -0.039 | [5] -0.013 | [6] -0.014 | [7] 0 | [8] 0.038 | IRAK-1-4 Inhibitor I -0.013 | ibrutinib 0.034 | [9] -0.004 | ralimetinib -0.005 | [10] -0.027 | [11] 0.03 | [12] -0.008 | [13] 0.001 | [14] -0.055 | [15] 0 | [16] -0.001
